Source: the supplement of paper PMC10849652
This is one part of the list.

Sequences of proteins named here, by UniProt entry; tags and fusion partners are left off. A change or cut given only in a name is not applied to a line headed by its entry.
UniProt C9J7I0: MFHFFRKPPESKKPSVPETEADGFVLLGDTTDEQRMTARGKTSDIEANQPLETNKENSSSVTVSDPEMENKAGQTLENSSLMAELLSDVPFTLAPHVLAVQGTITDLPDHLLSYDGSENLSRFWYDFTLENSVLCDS
UniProt Q14146: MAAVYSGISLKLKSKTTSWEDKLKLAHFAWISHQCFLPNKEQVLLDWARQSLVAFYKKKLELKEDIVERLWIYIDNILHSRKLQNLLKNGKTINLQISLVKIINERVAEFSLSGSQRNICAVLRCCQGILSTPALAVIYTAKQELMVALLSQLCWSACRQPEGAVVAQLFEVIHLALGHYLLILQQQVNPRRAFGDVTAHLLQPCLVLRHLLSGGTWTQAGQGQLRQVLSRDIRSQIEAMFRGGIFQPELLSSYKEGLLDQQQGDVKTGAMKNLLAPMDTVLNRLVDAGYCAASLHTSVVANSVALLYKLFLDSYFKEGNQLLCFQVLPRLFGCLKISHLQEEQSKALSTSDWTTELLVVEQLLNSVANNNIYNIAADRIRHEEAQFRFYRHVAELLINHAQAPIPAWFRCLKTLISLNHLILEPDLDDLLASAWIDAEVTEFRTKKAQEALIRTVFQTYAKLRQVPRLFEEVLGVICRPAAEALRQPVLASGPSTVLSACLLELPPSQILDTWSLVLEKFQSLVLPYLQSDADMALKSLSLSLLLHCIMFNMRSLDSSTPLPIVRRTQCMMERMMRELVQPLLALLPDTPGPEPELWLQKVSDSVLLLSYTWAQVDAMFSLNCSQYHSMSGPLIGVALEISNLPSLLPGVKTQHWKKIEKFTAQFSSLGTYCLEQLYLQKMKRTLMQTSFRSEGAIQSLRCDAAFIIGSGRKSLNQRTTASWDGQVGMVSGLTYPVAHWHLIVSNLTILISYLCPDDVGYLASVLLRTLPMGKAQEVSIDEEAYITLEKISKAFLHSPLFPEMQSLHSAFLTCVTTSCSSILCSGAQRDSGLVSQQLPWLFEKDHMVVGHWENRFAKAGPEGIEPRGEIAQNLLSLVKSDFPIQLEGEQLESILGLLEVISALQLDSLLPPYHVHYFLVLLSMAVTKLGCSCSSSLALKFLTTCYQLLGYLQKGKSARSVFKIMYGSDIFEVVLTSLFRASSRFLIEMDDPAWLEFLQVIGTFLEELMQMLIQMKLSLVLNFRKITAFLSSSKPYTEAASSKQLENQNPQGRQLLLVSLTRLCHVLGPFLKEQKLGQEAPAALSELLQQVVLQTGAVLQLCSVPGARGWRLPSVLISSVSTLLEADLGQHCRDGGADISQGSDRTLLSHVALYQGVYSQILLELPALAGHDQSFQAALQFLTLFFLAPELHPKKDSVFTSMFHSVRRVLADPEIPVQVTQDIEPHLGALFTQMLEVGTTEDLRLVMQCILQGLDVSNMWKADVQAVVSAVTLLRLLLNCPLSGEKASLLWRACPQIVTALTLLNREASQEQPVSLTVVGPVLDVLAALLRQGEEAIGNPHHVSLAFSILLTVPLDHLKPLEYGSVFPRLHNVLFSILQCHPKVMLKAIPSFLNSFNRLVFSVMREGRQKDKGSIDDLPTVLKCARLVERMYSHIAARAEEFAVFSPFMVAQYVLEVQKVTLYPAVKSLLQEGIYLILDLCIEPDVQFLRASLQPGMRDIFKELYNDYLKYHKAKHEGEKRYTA
UniProt O15240: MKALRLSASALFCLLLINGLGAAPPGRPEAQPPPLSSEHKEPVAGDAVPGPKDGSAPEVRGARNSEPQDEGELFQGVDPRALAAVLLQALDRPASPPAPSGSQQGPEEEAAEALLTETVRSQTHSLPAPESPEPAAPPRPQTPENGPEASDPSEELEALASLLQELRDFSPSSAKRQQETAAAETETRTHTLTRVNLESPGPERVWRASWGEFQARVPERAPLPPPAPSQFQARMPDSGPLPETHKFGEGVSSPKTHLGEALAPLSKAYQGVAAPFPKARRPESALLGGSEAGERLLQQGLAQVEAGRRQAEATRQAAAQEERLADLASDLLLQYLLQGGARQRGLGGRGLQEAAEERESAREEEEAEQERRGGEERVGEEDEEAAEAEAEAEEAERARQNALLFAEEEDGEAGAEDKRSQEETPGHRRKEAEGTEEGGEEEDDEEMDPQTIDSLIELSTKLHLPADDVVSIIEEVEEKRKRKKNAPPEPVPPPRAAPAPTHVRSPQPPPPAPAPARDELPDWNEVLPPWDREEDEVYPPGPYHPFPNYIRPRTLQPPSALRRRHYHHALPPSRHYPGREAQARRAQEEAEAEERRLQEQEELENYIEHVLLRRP
UniProt Q9BRU9: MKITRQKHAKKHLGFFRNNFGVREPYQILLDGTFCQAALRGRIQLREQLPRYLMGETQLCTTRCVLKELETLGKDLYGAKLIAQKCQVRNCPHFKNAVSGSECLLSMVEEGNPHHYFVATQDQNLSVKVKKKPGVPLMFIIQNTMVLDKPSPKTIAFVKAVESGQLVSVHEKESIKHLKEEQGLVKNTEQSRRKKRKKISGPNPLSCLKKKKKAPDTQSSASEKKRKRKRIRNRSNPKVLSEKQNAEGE
UniProt Q9NVE5: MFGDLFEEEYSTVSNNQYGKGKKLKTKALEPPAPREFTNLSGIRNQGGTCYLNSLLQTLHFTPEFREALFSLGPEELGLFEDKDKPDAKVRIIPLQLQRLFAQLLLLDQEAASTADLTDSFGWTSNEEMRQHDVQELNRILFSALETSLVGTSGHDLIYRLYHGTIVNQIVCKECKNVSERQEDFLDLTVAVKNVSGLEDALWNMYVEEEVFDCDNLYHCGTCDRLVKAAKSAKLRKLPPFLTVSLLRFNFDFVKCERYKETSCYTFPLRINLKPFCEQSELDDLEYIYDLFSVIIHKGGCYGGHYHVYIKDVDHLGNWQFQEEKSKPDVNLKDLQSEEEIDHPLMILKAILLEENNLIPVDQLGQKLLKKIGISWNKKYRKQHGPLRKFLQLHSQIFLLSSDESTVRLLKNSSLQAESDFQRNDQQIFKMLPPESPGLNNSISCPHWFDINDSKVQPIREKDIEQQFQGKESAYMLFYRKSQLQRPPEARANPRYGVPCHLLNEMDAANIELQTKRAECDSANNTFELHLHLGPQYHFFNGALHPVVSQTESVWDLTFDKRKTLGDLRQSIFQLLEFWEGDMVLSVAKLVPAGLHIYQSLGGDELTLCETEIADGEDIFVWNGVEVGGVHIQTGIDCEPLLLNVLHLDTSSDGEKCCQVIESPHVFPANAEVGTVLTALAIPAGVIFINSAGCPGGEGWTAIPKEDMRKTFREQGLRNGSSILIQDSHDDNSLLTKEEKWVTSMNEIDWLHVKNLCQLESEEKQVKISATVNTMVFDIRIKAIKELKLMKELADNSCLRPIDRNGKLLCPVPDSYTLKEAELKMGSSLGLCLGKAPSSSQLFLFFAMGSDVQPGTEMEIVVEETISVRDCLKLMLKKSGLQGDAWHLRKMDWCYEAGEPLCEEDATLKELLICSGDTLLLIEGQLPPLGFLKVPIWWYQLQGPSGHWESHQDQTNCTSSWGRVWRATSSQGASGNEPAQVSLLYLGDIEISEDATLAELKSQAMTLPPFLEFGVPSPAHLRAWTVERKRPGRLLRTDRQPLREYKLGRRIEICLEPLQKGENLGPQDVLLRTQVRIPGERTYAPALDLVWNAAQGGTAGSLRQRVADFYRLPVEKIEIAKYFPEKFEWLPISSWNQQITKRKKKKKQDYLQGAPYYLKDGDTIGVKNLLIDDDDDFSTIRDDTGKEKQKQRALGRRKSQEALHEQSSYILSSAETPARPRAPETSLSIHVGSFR
UniProt A6NNY8: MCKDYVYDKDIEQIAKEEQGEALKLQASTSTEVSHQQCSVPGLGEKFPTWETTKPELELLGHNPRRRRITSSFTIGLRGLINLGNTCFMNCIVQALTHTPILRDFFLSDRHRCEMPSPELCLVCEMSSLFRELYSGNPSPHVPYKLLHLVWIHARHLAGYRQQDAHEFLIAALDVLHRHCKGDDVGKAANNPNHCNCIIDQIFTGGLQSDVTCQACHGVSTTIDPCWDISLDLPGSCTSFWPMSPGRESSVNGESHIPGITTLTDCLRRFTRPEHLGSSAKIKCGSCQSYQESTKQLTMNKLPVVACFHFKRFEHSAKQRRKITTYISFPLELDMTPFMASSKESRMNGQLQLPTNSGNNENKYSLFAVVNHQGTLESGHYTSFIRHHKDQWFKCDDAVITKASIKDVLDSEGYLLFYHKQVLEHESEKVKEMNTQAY
UniProt Q9BTM9: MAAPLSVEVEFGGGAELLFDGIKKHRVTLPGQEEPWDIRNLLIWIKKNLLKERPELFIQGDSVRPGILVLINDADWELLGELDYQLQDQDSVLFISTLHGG
UniProt Q8NB14: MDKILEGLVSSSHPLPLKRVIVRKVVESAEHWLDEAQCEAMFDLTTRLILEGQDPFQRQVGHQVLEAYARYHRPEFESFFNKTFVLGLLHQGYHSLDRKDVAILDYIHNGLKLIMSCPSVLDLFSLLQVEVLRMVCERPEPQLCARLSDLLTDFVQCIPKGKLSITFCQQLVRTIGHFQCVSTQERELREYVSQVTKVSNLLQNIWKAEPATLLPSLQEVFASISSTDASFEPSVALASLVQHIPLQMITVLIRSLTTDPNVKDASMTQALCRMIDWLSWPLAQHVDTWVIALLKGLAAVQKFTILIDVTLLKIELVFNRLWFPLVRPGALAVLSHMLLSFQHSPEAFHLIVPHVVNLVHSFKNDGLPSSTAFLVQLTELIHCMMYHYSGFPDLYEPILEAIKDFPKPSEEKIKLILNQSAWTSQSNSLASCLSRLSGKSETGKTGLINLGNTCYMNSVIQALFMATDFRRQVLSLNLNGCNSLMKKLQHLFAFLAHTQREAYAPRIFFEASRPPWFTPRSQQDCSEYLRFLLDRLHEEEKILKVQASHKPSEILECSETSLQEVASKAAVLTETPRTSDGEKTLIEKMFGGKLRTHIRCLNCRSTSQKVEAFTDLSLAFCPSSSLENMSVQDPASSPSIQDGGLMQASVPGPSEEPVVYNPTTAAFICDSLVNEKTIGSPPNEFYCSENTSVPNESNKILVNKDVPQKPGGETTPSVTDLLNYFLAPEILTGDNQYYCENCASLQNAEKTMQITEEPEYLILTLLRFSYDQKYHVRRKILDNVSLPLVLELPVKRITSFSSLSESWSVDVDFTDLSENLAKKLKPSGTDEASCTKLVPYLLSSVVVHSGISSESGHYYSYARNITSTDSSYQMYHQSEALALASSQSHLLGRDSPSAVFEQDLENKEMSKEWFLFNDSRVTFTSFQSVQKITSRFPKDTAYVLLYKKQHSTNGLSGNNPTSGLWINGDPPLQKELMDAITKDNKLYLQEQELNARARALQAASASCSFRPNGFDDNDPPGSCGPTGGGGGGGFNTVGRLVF
UniProt Q70CQ3: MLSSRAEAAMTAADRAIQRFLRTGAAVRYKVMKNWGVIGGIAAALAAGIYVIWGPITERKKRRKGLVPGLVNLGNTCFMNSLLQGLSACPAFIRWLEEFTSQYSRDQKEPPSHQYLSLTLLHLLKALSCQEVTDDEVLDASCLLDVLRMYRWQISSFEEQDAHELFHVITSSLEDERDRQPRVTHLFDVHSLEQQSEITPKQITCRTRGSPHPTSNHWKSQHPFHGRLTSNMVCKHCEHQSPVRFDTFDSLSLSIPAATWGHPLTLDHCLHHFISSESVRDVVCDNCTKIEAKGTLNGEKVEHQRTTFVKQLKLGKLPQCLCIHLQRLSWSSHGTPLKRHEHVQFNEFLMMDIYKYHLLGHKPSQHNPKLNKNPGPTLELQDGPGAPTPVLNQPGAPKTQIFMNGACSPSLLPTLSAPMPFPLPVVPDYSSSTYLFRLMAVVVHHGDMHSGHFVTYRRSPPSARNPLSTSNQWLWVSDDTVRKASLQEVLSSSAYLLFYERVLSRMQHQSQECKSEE
UniProt Q6UW78: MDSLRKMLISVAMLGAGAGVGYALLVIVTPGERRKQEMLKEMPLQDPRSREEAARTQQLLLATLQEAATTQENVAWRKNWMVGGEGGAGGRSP
UniProt O94763, whole entry, looked up: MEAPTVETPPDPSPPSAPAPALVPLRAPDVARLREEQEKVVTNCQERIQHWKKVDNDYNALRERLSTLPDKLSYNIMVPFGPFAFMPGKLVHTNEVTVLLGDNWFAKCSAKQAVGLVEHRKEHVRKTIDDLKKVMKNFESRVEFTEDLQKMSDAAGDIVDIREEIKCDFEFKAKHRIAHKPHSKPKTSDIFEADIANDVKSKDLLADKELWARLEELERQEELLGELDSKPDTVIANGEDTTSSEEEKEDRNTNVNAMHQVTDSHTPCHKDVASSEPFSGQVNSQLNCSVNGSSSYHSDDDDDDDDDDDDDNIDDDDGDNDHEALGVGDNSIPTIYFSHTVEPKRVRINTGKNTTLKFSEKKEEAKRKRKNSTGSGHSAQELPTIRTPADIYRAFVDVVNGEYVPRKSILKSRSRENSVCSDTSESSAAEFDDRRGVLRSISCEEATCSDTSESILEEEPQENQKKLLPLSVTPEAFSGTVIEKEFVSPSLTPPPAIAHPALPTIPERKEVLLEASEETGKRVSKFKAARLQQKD

Columns and labels:
Assay in all cases: log2 fold change, soluble protein after heating vs DMSO (PISA); higher = thermal stabilisation; K562 lysate, 10 uM; active = over 0.2 and 3.5 SD of the protein, either way, in both replicates (recomputed)
[1] = compound: NCC(=O)Nc1ccc(-n2nc(C(F)(F)F)cc2-c2ccc3c(ccc4ccccc43)c2)cc1
Procedure, shortened: (§1)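 Thermal stability, expressed as log-two fold change relative to solvent controls, is given from duplicates. Crude K562 extract in PBS pH 7.4 with 1 mM MgCl2, at 1 mg/mL protein, was treated with 10 μM compound for 30 min and heated in aliquots for 3 min across 48°C-58°C. After pooling, adjustment to 0.5% NP-40 at 4°C and centrifugation at 21,000xg for 90 min, supernatant protein was measured by TMTpro 16plex LC-MS/MS with channel sums equalised.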

vorinostat = compound: O=C(CCCCCCC(=O)Nc1ccccc1)NO [vorinostat]
Procedure, shortened: as §1

silmitasertib = compound: O=C(O)c1ccc2c(c1)nc(Nc1cccc(Cl)c1)c1ccncc12 [silmitasertib]
Procedure, shortened: as §1

[2] = compound: O=C1NC(=O)C(c2cnc3ccccn23)=C1c1cn2c3c(cc(F)cc13)CN(C(=O)N1CCCCC1)CC2
Procedure, shortened: as §1

entospletinib = compound: c1cn2cc(-c3ccc4cn[nH]c4c3)nc(Nc3ccc(N4CCOCC4)cc3)c2n1 [entospletinib]
Procedure, shortened: as §1

| Target | log2 fold change [1] | log2 fold change (vorinostat) | log2 fold change (silmitasertib) | log2 fold change [2] | log2 fold change (entospletinib) |
| --- | --- | --- | --- | --- | --- |
| UGGT1 (UniProt Q9NYU2) | inactive: 0.008 | inactive: 0.112 | inactive: -0.008 | inactive: -0.004 | inactive: 0.008 |
| USP15 isoform 3 (UniProt Q9Y4E8) | – | – | – | inactive: 0.072 | – |
| USP54 (UniProt Q70EL1) | – | – | – | inactive: -0.035 | – |
| UMAD1 (UniProt C9J7I0) | – | – | – | inactive: -0.018 | – |
| URB2 (UniProt Q14146) | inactive: 0.094 | – | – | inactive: 0.044 | inactive: -0.008 |
| VGF (UniProt O15240) | inactive: 0.122 | inactive: 0.13 | inactive: -0.133 | – | inactive: -0.205 |
| UTP23 (UniProt Q9BRU9) | – | inactive: -0.072 | inactive: -0.066 | inactive: -0.002 | – |
| USB1 (UniProt Q9BQ65) | inactive: -0.119 | inactive: -0.052 | inactive: -0.043 | inactive: 0.032 | inactive: -0.161 |
| USP42 (UniProt Q9H9J4) | – | – | – | inactive: -0.053 | inactive: -0.116 |
| USP40 isoform 3 (UniProt Q9NVE5) | – | inactive: 0.062 | inactive: -0.06 | inactive: -0.053 | – |
| USP27X (UniProt A6NNY8) | – | – | – | inactive: -0.143 | – |
| UTRN isoform 2 (UniProt P46939) | – | inactive: 0.173 | inactive: -0.144 | – | inactive: -0.424 |
| USP33 (UniProt Q8TEY7) | – | – | – | inactive: 0.345 | – |
| UCP2 (UniProt P55851) | inactive: -0.12 | – | – | inactive: 0.035 | – |
| USP19 isoform 4 (UniProt O94966) | inactive: 0.166 | inactive: -0.143 | inactive: -0.09 | – | inactive: -0.051 |
| UNC119 (UniProt Q13432) | – | inactive: -0.096 | inactive: 0.084 | inactive: 0.073 | – |
| USP20 (UniProt Q9Y2K6) | – | inactive: -0.11 | inactive: 0.027 | inactive: 0.006 | inactive: 0.039 |
| USP37 (UniProt Q86T82) | inactive: 0.266 | – | – | inactive: -0.194 | inactive: -0.076 |

Quoted at random: 2 records from the list.

| Target | log2 fold change [1] | log2 fold change (vorinostat) | log2 fold change (silmitasertib) | log2 fold change [2] | log2 fold change (entospletinib) |
| --- | --- | --- | --- | --- | --- |
| UCP2 (UniProt P55851) | inactive: -0.12 | – | – | inactive: 0.035 | – |
| USP37 (UniProt Q86T82) | inactive: 0.266 | – | – | inactive: -0.194 | inactive: -0.076 |

The list continues.

| Target | log2 fold change [1] | log2 fold change (vorinostat) | log2 fold change (silmitasertib) | log2 fold change [2] | log2 fold change (entospletinib) |
| --- | --- | --- | --- | --- | --- |
| USF3 (UniProt Q68DE3) | – | inactive: 0.008 | inactive: 0.023 | – | inactive: -0.004 |
| VGLL4 isoform 4 (UniProt Q14135) | – | inactive: -0.03 | inactive: -0.021 | inactive: -0.112 | – |
| URM1 isoform 2 (UniProt Q9BTM9) | inactive: -0.1 | inactive: -0.078 | inactive: 0.046 | – | inactive: -0.034 |
| VASN (UniProt Q6EMK4) | – | inactive: 0.233 | inactive: -0.263 | – | inactive: -0.027 |
| UROD (UniProt H0Y5R6) | inactive: -0.059 | – | – | – | inactive: 0.021 |
| USP38 (UniProt Q8NB14) | inactive: 0.067 | – | – | inactive: 0.079 | inactive: -0.01 |
| VCX3B (UniProt Q9H321) | – | inactive: 0.12 | inactive: 0.041 | inactive: -0.018 | inactive: 0.015 |
| VCPKMT (UniProt Q9H867) | – | inactive: 0.292 | inactive: 0.243 | inactive: 0.033 | – |
| USP46 (UniProt P62068) | – | – | – | inactive: 0.072 | – |
| USP6NL isoform 2 (UniProt Q92738) | inactive: -0.109 | – | – | inactive: -0.137 | inactive: -0.114 |
| UHRF2 (UniProt Q96PU4) | inactive: -0.142 | – | – | inactive: 0.427 | – |
| USP30 (UniProt Q70CQ3) | – | inactive: -0.119 | inactive: -0.022 | inactive: 0.063 | – |
| UQCC3 (UniProt Q6UW78) | inactive: -0.141 | inactive: 0.055 | inactive: 0.048 | – | inactive: -0.18 |
| VEGFA isoform 14 (UniProt P15692) | – | – | – | inactive: 0.005 | – |
| URI1 isoform 4 (UniProt O94763) | – | inactive: -0.02 | inactive: -0.033 | inactive: 0.049 | inactive: 0.068 |
| USP36 (UniProt Q9P275) | inactive: -0.4 | – | – | inactive: 0.076 | inactive: 0.098 |
| UNKL (UniProt E9PDK2) | inactive: -0.336 | – | – | inactive: 0.003 | inactive: 0.108 |
| VANGL2 (UniProt Q9ULK5) | – | inactive: -0.189 | inactive: -0.079 | inactive: 0.209 | – |
